In patent US20140024683A1, “CHLORIDE CHANNEL AND CHLORIDE TRANSPORTER MODULATORS FOR THERAPY IN SMOOTH MUSCLE DISEASES” (priority 2011, published 2014):
At least one structure is not confirmed: it was looked up by name or label, or the drawing left a doubt.

System: rat lung slices
Assay: Airway lumen area in peripheral small airways of rat lung slices
Conditions: contractile agonists
Method: The measurement of airway contraction of a luminal area of small lung airways using the ex vivo rat lung slice method was performed as described (Perez-Zoghbi et al., 2007). The trachea was cannulated with an intravenous catheter, and after the chest cavity was opened, the collapsed lungs were reinflated with 1.3±0.1 ml of 2% agarose (low-gelling temperature) in Sigma-Hanks' Balanced Salt solution (sHBSS), followed by the injection of 0.2±0.1 of air to flush the agarose-sHBSS out of the airways and into the distal alveolar space. Subsequently, a warm (37° C.) solution of gelatin (type A, porcine skin, 300 bloom, 6% in sHBSS) was perfused through the intrapulmonary blood vessels via the pulmonary artery by injecting about 0.3 ml into the right ventricle. The warm agar and gelatin were gelled with cold sHBSS. A single lung lobe was removed and cut into serial sections of about 130 μm thick with a vibratome at about 4° C., starting at the lung periphery. Slices were maintained in DMEM (Invitrogen) at 37° C. and 10% CO2 for up to 3 days. At 37° C., the gelatin in the blood vessel lumen dissolved, leaving the blood vessel lumen empty. […] Digital images were recorded in time lapse (30 frames/min). The area of the bronchiole and arteriole lumen was calculated, from each image, by pixel summing using custom-written software. […]

For `CC(=O)OCC[N+](C)(C)C` [ACh, acetylcholine], the “percent decrease in lumen area compared to rest” value was “significant decrease in lumen area”.
